In PubChem BioAssay AID1487 (National Center for Advancing Translational Sciences (NCATS), 2009) one finds AC50 data, which are given here for 14 molecules.

A short description of this assay: qHTS Assay for Modulators of Lamin A Splicing. The note with it: HeLa LMNA splicing GFP/RFP minigene ratio, 48 h. An outline of the steps:
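Read-out is the ratio of GFP to DsRed2 object intensity, acquired by 488 nm laser-scanning cytometry on HeLa lamin A-EGFP minigene reporter cells. Compound incubation 48 hrs at 37 °C in Opti-MEM with 2% FBS; DMSO 0.5% final.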

Where [1] appears, read: measured here: GFP splicing reporter channel.
Setting [2] is: measured here: RFP viability control channel.

Some of the results follow. The main result of the screen is listed elsewhere. These columns were measured beside it and carry no call. Compounds called inactive in the main read-out are mostly missing here. The note in brackets gives the kind of curve behind each potency; many fits are weak.

With `Cc1ccccc1NC(=O)c1ccc(F)c(S(=O)(=O)N(C)C2CCCCC2)c1`, the AC50 is 2.51 µM [falling, full curve] under setting [1] and 3.16 µM [falling, full curve] under setting [2]. On to `CCOC(=O)c1[nH]c(C)c(C(=O)NCCC2=CCCCC2)c1C`, for which the AC50 under setting [1] is 11.2 µM [rising, single point]. Take `Cc1nc(-c2ccc(C)c(S(=O)(=O)N3CCC(C(=O)Nc4ccc(Cl)cc4)CC3)c2)no1`: the AC50 under setting [1] was 7.94 µM [falling, partial curve, poor fit] and the AC50 under setting [2] is 8.91 µM [falling, partial curve, poor fit]. Turning to `COc1ccc(N(C)S(=O)(=O)c2cccc3cccnc23)c(OC)c1`, the AC50 reads like this: under setting [1], 35.5 µM [falling, single point]; under setting [2], 35.5 µM [falling, single point]. Take `Cc1ccc(NC(=S)NCCSc2ccc(Cl)cc2)cc1`: the AC50 under setting [2] is 35.5 µM [falling, single point]. For the molecule `Cn1cc(C(=O)c2ccc(F)cc2)cc1-c1nc2ccccc2n1C`, the half-maximal activity concentration (AC50) runs as follows: under setting [1], 12.6 µM [rising, partial curve]; under setting [2], 25.1 µM [rising, single point]. As for `COc1cc2[nH]c(=O)n(CCCCCC(=O)N3CCN(c4ccccc4)CC3)c(=O)c2cc1OC`, the AC50 reads like this: under setting [1], 2.51 µM [rising, single point]; under setting [2], 15.8 µM [rising, single point]. Consider `O=C(Nc1nnc(C2CC2)s1)c1ccc(Cl)c(S(=O)(=O)N2CCc3ccccc3C2)c1`, for which the AC50 under setting [2] is 2.51 µM [rising, full curve]. Regarding `Nc1ccc(Cc2nc3cc4ccccc4cc3[nH]2)cc1`, the AC50 under setting [1] is 6.31 µM [falling, full curve].

For the molecule `CCCCCCCCNC(C)C(O)c1ccc(SC(C)C)cc1` (stereo not drawn), the AC50 is 35.5 µM [falling, single point] under setting [1] and 35.5 µM [falling, single point] under setting [2]. As for `CN(C)CCCNS(=O)(=O)c1ccc(N2CCC(c3ccc(Cl)cc3)=N2)cc1`, the half-maximal activity concentration (AC50) under setting [1] was 35.5 µM [falling, single point] and the AC50 under setting [2] was 35.5 µM [falling, single point].

`COc1ccc(CNS(=O)(=O)c2cnc(N)nc2)cc1`: the AC50 is 0.0891 µM [rising, full curve, poor fit] under setting [1] and 6.31 µM [rising, partial curve, poor fit] under setting [2]. Regarding `CC1(C)Cc2cccc(OCC(=O)N3CCN(S(=O)(=O)c4ccccc4)CC3)c2O1`, the AC50 under setting [1] was 7.08 µM [rising, partial curve] and the AC50 under setting [2] is 7.08 µM [rising, partial curve]. Regarding `CCn1c(=O)n(CC)c2cc(S(=O)(=O)N3CCc4ccccc43)ccc21`, the AC50 under setting [2] is 35.5 µM [rising, single point].

The term AC50 denotes the concentration giving half of the maximal activity seen.
